Screening data, single-dose tests

Measurements from “University of Dundee, Small-Polar-MMV Screening Library” (2021), ChEMBL document CHEMBL3988442.

Results are given as percent effect. How 0% and 100% were set is not recorded. Most values in the screen are low, and negative values occur. This is an unselected part of the compounds tested. A dash means the value is not listed here; it may have been measured.

T. brucei: 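Whole-parasite assay of Trypanosoma brucei over 72 hours; the read-out is not stated. Tested at 30 µM. The record gives no direction; compounds that gave an IC50 in retests scored well above the rest, so higher reads as stronger inhibition. Values scatter widely below zero; nearly all retest evidence comes from the higher of the two concentrations used. About 64,000 compounds were tested under these conditions; 1.5% (about 940) showed 50% or more at least once.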
Toxoplasma: 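Assay of Toxoplasma gondii numbers, read through their beta-galactosidase reporter with a colour substrate. Concentration: 10 µM. Higher reads as fewer parasites (inferred from which compounds were picked for retests). Size under these conditions: about 67,000 compounds, about 260 of them at 50% or above in at least one test.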

compound,T. brucei,Toxoplasma
Cc1ccc(-c2noc(CN3CCC(N4CCNC4=O)CC3)n2)cc1,-15.49%,-2.293%
CNc1nc(C(=O)N2CCCCC2c2ccc(CN(C)C)cc2)cs1 (configuration not stated),-29.62%,-10.27%
CCOCc1nc2c(c(N(C)Cc3nonc3C)n1)CCNCC2,-28.36%,0.4369%
COCCCN1CC2(CCC1=O)CCN(Cc1cc(C(C)C)no1)CC2,-36.08%,-26.52%
Cc1ccc(=O)n(CC2(O)CCN(Cc3ccsc3)CC2)n1,0.5349%,0.5766%
COc1ccc(C(=O)N(Cc2cnn(C)c2)C(C)C)cc1OC(F)F,-10.39%,0.2288%
COc1ncccc1C(=O)N1CCCC1c1nc(-c2ccccc2)n[nH]1 (configuration not stated),-14.91%,-5.228%
Fc1cccc(-c2nc(CN3CCCCC3Cn3cncn3)co2)c1 (configuration not stated),6.367%,-
[H][C@]12CC[C@@]([H])(C1)N(Cc1cccc(OC)c1OCCN1CCOCC1)C2,-19.59%,17.49%
CCOc1ccc(C(C)NC(=O)N2CCC(C(N)=O)CC2)cc1OC (configuration not stated),-4.417%,0.9233%
CCCS(=O)(=O)c1ccc(N2CCN(c3ccccn3)CC2)nn1,-24.38%,21.49%
[H][C@@]12CCN(S(C)(=O)=O)C[C@@]1([H])O[C@@H](c1ccnc(C)n1)C2,-74.86%,5.273%
Cc1c(NC(=O)c2noc3c2CCCC3)cnn1C,-16.07%,11.12%
CC(C)n1nc(CNc2ncccn2)c2c1CN(S(C)(=O)=O)CC2,-7.326%,-10.72%
COc1cccc(OCC2CCCN(C(=O)c3ccc(N)nc3)C2)c1 (configuration not stated),-86.98%,9.825%
COc1ccc(CN(CC2CCCO2)C(=O)CN2CCOC2=O)cc1 (configuration not stated),-8.741%,-12.68%
CCc1ccc(C(=O)NC2CCN(c3ccn(C)n3)C2)o1 (configuration not stated),-48.2%,-1.072%
CCS(=O)(=O)N1Cc2c(Cn3ccnc3)nn(C(C)C)c2C1,-,-10.87%
O=C(O)C(F)(F)F.[H][C@@]12COC[C@]1(COc1cccnc1)CN(C(=O)COC1CCCC1)C2,-69.72%,-14.01%
Cc1ccc(CN2CCc3onc(C(=O)NC(C)C)c3C2)o1.O=C(O)C(F)(F)F,1.467%,-14.34%
[H][C@]12CC[C@]([H])(CN(S(=O)(=O)N(C)C)C1)N(Cc1ccc3nsnc3c1)C2,2.112%,2.617%
O=C(O)C(F)(F)F.O=C(O)C(F)(F)F.c1cncc(-c2ccc3c(c2)CCC32CCN(Cc3ccco3)CC2)c1,53.48%,23.31%
O=C(c1cc(COc2ccc3c(c2)OCO3)[nH]n1)N1CCSCC1,-24.89%,10.27%
CN(C)S(=O)(=O)N1CC[C@]2(C[C@H](OCc3ccccn3)CO2)C1.O=C(O)C(F)(F)F,-13.88%,-3.527%
Cc1cccc(N2CCN(CCC(=O)NCc3cccnc3)CC2)c1,-7.912%,-11.68%
COCCNC(=O)NCc1cccc(-n2ccnc2)c1,-9.355%,-12.2%
NC(=O)CCNC(=O)C1(N2CCCCC2)Cc2ccccc2C1,-3.357%,-0.4019%
Cc1cc(NC(=O)c2ccc(N3CCOCC3)cc2)[nH]n1,1.175%,-4.585%
CN(CCCC1CCCO1)C(=O)c1cccc(C#N)c1 (configuration not stated),-40.2%,7.129%
COc1ccccc1-c1nnc([C@H]2CCN(C(=O)C3CC3)C2)o1,-39.3%,5.122%
CCOC(C)c1nc(Cn2cccn2)cs1 (configuration not stated),-29%,6.885%
Cn1cc(CNC2CCCOc3c2ccc2ccccc32)cn1 (configuration not stated),1.092%,15.9%
Cc1csc2c(N3CCC(NCCCc4cnn(C)c4)CC3)ncnc12,-6.254%,-12.9%
Cc1nc(C2CCCN2Cc2ccon2)no1 (configuration not stated),5.587%,-21.52%
CCc1cnc(NCC(c2ccncc2)N2CCOCC2)nc1 (configuration not stated),-15.32%,13.28%
FC(F)(F)C1CCCn2c(CNCc3ccsc3)nnc21 (configuration not stated),5.829%,-0.5507%
CC(Nc1ncnc2c1NC(=O)CN2)c1ccccn1 (configuration not stated),-2.323%,-21.6%
CN(Cc1ccc(F)c(F)c1)Cc1cc2c(cc1Br)OCCO2,-17.33%,-13.16%
Cc1oc(C)c(C(=O)NS(=O)(=O)c2ccc3c(c2)OCCO3)c1Br,-6.8%,7.223%
CN1CC(=O)N(c2cnn(C)c2)CC12CCN(Cc1cccnc1)C2.O=C(O)C(F)(F)F.O=C(O)C(F)(F)F.O=C(O)C(F)(F)F (configuration not stated),-16.52%,-5.473%
Cc1ccc2nc(-c3cnc(N)nc3)c(C)c(C(=O)N(C)C)c2c1,-8.63%,18.59%
CCC(CO)N(Cc1ccccc1C)Cc1ccccc1C(=O)O (configuration not stated),-47.15%,9.007%
Cc1c(CNCC(C)Oc2cccnc2)c2ccccc2n1CC(N)=O (configuration not stated),-139.6%,2.31%
CN(C)c1nccc(N(C)C2CCOCC2)n1,-17.15%,-11.84%
CCOCc1ncn2c1CN(S(=O)(=O)c1cccc(C)c1)CC2,-33.05%,9.946%
[H][C@@]12CS(=O)(=O)C[C@]1([H])N(C(=O)C1CCCC1)CCN2Cc1ccncc1,-34.34%,6.811%
Cn1ccnc1CN1CCC2(CC1)CN(CC1CC1)C(=O)CO2,9.106%,0.9978%
CC1CCN(CC(=O)NC2CCN(C(C)c3ccccc3)CC2)CC1.Cl (configuration not stated),21.99%,17.25%
Cc1ncc(CN2CCCC2c2ccc(C(=O)NCc3ccoc3)s2)s1 (configuration not stated),-1.969%,-2.363%
Cc1cc(-c2ccccc2C(=O)O)nc(C2CCCCN2C)n1 (configuration not stated),4.967%,-7.246%
O=C(O)C(F)(F)F.O=C(O)C(F)(F)F.[H][C@]12CCN(Cc3nccs3)[C@@]1([H])CC[C@H](COCc1cccnc1)O2,-23.49%,13.21%
Cn1ccnc1CN1CCCN(C(=O)c2ccc3c(c2)OCO3)CC1,-11.54%,-18%
[H][C@]12CCCCN1CCC[C@@]2(O)CN1CCN(c2cc(C)ccn2)CC1,-1.273%,16.97%
COc1ccc(CC(=O)N2CCCC2Cn2cccn2)cc1F (configuration not stated),-31.4%,-3.704%
CCOCCNC1(c2ccc(Cl)cc2)CCOCC1,-31.1%,-5.543%
CCc1nc(CN2CCN(C(=O)C3CCCCC3)CC2)cs1,-17.54%,6.842%
COCc1ccc(C(=O)N2CCCN(C(=O)OCC(C)C)CC2)cc1,-56.58%,-1.529%
CC1CN(Cc2cccnc2)CCN1c1ccc2nncn2n1 (configuration not stated),7.126%,24.76%
Cc1c(S(=O)(=O)N2CCCCC2c2nnc(-c3cccs3)o2)cnn1C (configuration not stated),5.723%,16.95%
Cc1nc2n(n1)CC(NCc1ccc(Cl)c3cccnc13)CC2 (configuration not stated),-87.42%,-38.16%
CCN(C)C1COC2(CCN(C(=O)c3ccc(Cl)cc3)CC2)C1.O=C(O)C(F)(F)F (configuration not stated),-24.88%,13.21%
[H][C@@]12CN(C(=O)CC3CC3)C[C@]1([H])C(=O)N(CCOC)C2,-2.281%,-8.013%
NC(=O)c1csc(N2CCCC(c3nc4ccccc4[nH]3)C2)n1 (configuration not stated),44.03%,1.969%
Cc1noc(C)c1CS(=O)(=O)CC(=O)N1c2ccccc2CC1C (configuration not stated),-10.09%,-9.422%
Cc1noc(-c2ccc(N(C)Cc3nccs3)nc2)n1,-46.84%,-3.11%
CC(C(=O)NCc1ccnc(N2CCCC2)c1)n1cccn1 (configuration not stated),9.161%,-4.093%
Cc1cc(NC(=O)NCCc2ccc3c(c2)OCCO3)n(C)n1,-11.26%,-0.7928%
COC(=O)c1cccc2nc([C@H]3CCN(Cc4ccccc4)C3)oc12,-0.7294%,14.95%
CCn1cc(CN2CCCn3nc(CCC(=O)NCCO)cc3C2)cn1,-41.96%,12.96%
CCN(Cc1cc(F)ccc1Cl)C1CCS(=O)(=O)C1 (configuration not stated),3.997%,-15.35%
CC(C)c1nc2n(n1)CC(NCC(=O)NCCC1=CCCCC1)CC2 (configuration not stated),-25.51%,8.672%
CCn1ncc2c1CN(C(=O)Cc1ccccn1)CC2COC.O=C(O)C(F)(F)F.O=C(O)C(F)(F)F (configuration not stated),-28.87%,-16.09%
CCCOCCOC(=O)c1ccc2c(c1)[nH]c(=O)n2C,-10.02%,3.687%
Cc1ccc(C2(CN(C)Cc3snnc3C)CCNCC2)nc1,23.41%,1.093%
O=C(NCCCO)c1cnc(-c2ccccc2)nc1O,-19.08%,-5.622%
COC(=O)c1ccc2c(-c3ccnc(NCCO)n3)c[nH]c2c1,8.363%,29.45%

The last 8 entries again:

With CCn1cc(CN2CCCn3nc(CCC(=O)NCCO)cc3C2)cn1 the screen gave T. brucei: -41.96%; Toxoplasma: 12.96%.
With CCN(Cc1cc(F)ccc1Cl)C1CCS(=O)(=O)C1 (configuration not stated) the screen gave T. brucei: 3.997%; Toxoplasma: -15.35%.
With CC(C)c1nc2n(n1)CC(NCC(=O)NCCC1=CCCCC1)CC2 (configuration not stated) the screen gave T. brucei: -25.51%; Toxoplasma: 8.672%.
With CCn1ncc2c1CN(C(=O)Cc1ccccn1)CC2COC.O=C(O)C(F)(F)F.O=C(O)C(F)(F)F (configuration not stated) the screen gave T. brucei: -28.87%; Toxoplasma: -16.09%.
With CCCOCCOC(=O)c1ccc2c(c1)[nH]c(=O)n2C the screen gave T. brucei: -10.02%; Toxoplasma: 3.687%.
With Cc1ccc(C2(CN(C)Cc3snnc3C)CCNCC2)nc1 the screen gave T. brucei: 23.41%; Toxoplasma: 1.093%.
With O=C(NCCCO)c1cnc(-c2ccccc2)nc1O the screen gave T. brucei: -19.08%; Toxoplasma: -5.622%.
With COC(=O)c1ccc2c(-c3ccnc(NCCO)n3)c[nH]c2c1 the screen gave T. brucei: 8.363%; Toxoplasma: 29.45%.